Measured values as given in US20060270019A1, “Method for producing lactic acid bacterium culture containing bacteriocin and a method for preserving food products for by using it” (Ajinomoto Co., Inc., priority 2003, published 2006).

Test: Aging of ground beef: free amino acid content

[Cl-].[Na+] [salt, sodium chloride]
FAA (Aging day 0): 66 µmol/g
FAA (Aging day 1, ambient temperature): 73 µmol/g
FAA (Aging day 7, ambient temperature): 70 µmol/g
